The values below come from patent US20110046217A1, “USE OF 2,2'-CYCLOLIGNANS FOR INDUCING, RESTORING OR STIMULATING THE PIGMENTATION OF THE SKIN, HAIR OR HAIRS” (priority 2007, published 2011).

In the data set the test system is B16 melanocytes. In words: Amount of proteins (Bradford method) in B16 melanocyte cultures. The data set is classed as cell-based. To be noted: for Proteins: Table 2, plate 1; for Total proteins: Table 4.

For `COc1cc2c(c(OC)c1OC)-c1c(cc3c(c1OC)OCO3)C[C@H](C)[C@](C)(O)C2` [Gomisin A, gomisin A], the “Proteins” value is, setting by setting: (0.0022 mg/ml) 1.003 mg/mL; (0.0067 mg/ml) 1.000 mg/mL; (0.02 mg/ml) 0.992 mg/mL.
On to `COc1cc2c(c(OC)c1OC)-c1c(cc3c(c1OC)OCO3)C[C@H](C)[C@](C)(O)[C@H]2OC(=O)c1ccccc1` [Gomisin C, gomisin C], for which the “Total proteins” value was determined as 1.220 mg/mL (0.4 μg/ml), 1.294 mg/mL (2 μg/ml) and 1.299 mg/mL (8 μg/ml).
With `CC(C)Cn1c(=O)n(C)c(=O)c2[nH]cnc21` [IBMX, reference compound], the “Proteins” value (200 μM) worked out at 0.917 mg/mL. For the same molecule, the “Total proteins” value came out at 1.292 mg/mL (8 μM), 1.338 mg/mL (40 μM) and 1.428 mg/mL (200 μM).
